Measurements reported in patent publication USRE49280.

Protein sequences, listed by entry. Tags and fused reporters are not part of them. Lines headed by an entry give the natural chain unless they say otherwise; changes in a name come on top.
UniProt P61812: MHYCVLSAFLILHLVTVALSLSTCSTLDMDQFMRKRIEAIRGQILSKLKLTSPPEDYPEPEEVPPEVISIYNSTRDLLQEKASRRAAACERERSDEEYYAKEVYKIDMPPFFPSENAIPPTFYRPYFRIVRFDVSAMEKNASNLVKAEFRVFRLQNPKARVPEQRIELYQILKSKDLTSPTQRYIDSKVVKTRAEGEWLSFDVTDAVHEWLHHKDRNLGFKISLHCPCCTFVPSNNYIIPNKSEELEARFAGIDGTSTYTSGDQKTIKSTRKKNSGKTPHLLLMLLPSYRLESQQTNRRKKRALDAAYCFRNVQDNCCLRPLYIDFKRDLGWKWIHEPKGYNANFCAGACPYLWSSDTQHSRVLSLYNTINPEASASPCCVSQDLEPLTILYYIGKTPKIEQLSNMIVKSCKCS

Assays:
[1] = biological target: TGF-β2 (UniProt P61812); assay: SPR
[2] = biological target: TGF-β2 (UniProt P61812); assay: SPR, fusion injected over immobilised TGF-β2

- binding [1]: binds
- binding [2]: binds
B1: RER (TβRII-TβRIIIE-TβRII) heterotrimeric fusion (designed binder)
chain: AAANGAVKFPQLCKFCDVRFSTCDNQKSCMSNCSITSICEKPQEVCVAVWRKNDENITLETVCHDPKLPYHDFILEDAASPKCIMKEKKKPGETFFMCSCSSDECNDNIIFSEEYNTSNPDGLGPVESSPGHGLDTAAAGPEPSTRCELSPINASHPVQALMESFTVLSGCASHGTTGLPREVHVLNLRSTDQGPGQRQREVTLHLNPIASVHTHHKPIVFLLNSPQPLVWRLKTERLAAGVPRLFLVSEGSVVQFPSGNFSLTAETEERNFPQENEHLLRWAQKEYGAVTSFTELKIARNIYIKVGEDQVFPPTCNIGKNFLSLNYLAEYLQPKAAEGCVLPSQPHEKEVHIIELITPSSNPYSAFQVDIIVDIRPAQEDPEVVKNLVLILKSKKSVNWVIKSFDVKGNLKVIAPNSIGFGKESERSMTMTKLVRDDIPSTQENLMKWALDAGYRPVTSYTMAPVANRFHLRLENNEEMRDEEVHTIPPELRILLDPDKLPQLCKFCDVRFSTCDNQKSCMSNCSITSICEKPQEVCVAVWRKNDENITLETVCHDPKLPYHDFILEDAASPKCIMKEKKKPGETFFMCSCSSDECNDNIIFSEEYNTSNPD

Results are given in words; binding and its absence hold for the method and conditions named. Binding calls can cover weak binding; strength is not graded here. Sequences can lack the tags named with a protein.
